In the supplement of paper PMC12889115:
This is one part of the list. These are raw signals, not scaled to a control.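 Primary screen: polymyxin B was added at a level permeabilizing Salmonella outer membranes while sparing inner membranes. DMSO wells, both with and without polymyxin B, established maximum growth. Plate-to-plate variation meant each plate was ranked on its own, and the lowest-OD600 compounds were selected as hits.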

Test system: Salmonella enterica serovar Typhimurium SL1344
Test: bacterial growth OD600 after 18 h with compound and polymyxin B; higher = more bacterial growth (less inhibition)
Details: 50 µM, Mueller-Hinton broth

Row | SMILES | bacterial growth OD600 (polymyxin B 1 µg/mL) | bacterial growth OD600 (polymyxin B 0.75 µg/mL)
1 | O=C(NCc1cccnc1)c1cc(Cn2cnc3ccccc32)on1 | 1.24 | 
2 | O=C(NCc1cccnc1)c1ccc(N2CCC(NCc3csc(Cc4ccccc4)n3)CC2)cc1 |  | 0.736
3 | CC(Cn1cncn1)NC(=O)c1cc(COc2ccc3c(c2)CCCC3)on1 (centres undefined) | 0.987 | 
4 | CSCCC(=O)N1CCC(C(=O)Nc2ccc(-c3cccc(C)c3)cc2)CC1 | 1 | 
5 | OCC1CCCN(c2ccc(-c3nc(COc4ccccc4)no3)cn2)C1 (centres undefined) | 0.718 | 
6 | Cc1cc(CNC(=O)c2ccc3oc(Cc4ccccc4)nc3c2)nn1C | 1.05 | 
7 | Cc1ccc(C(=O)N2CCOc3ccc(CN4C[C@@H](C)O[C@@H](C)C4)cc3C2)cc1N1CCNC1=O |  | 0.977
8 | CN(Cc1ccc(C#CCO)s1)C1CCCN(C2Cc3ccccc3C2)C1 (centres undefined) | 1.33 | 
9 | COc1ccc(-c2nn(-c3ccccc3C)cc2CN2CCOCC2)cc1F | 0.012 | 

Two of these compounds, reformatted.
Row	SMILES	bacterial growth OD600 (polymyxin B 1 µg/mL)	bacterial growth OD600 (polymyxin B 0.75 µg/mL)
7	Cc1ccc(C(=O)N2CCOc3ccc(CN4C[C@@H](C)O[C@@H](C)C4)cc3C2)cc1N1CCNC1=O		0.977
8	CN(Cc1ccc(C#CCO)s1)C1CCCN(C2Cc3ccccc3C2)C1 (centres undefined)	1.33	
